Data from US9487489B2, “Halogen-substituted pyrazole derivatives as pest-control agents” (BAYER CROPSCIENCE AKTIENGESELLSCHAFT, priority 2013, dated 2016).
Some of these results come from one statement about several compounds together.

Tests used:
[1] = tested on: nymphs of the American dog tick (Dermacentor variabilis); assay: Dermacentor variabilis systemic in vivo activity against American dog tick nymphs on rats (T6); details: versus placebo group
[2] = tested on: adult cat fleas (Ctenocephalides felis); assay: Ctenocephalides felis systemic in vivo activity against fleas on rats (T7); details: versus placebo group
[3] = day 2, 10 mg/kg intraperitoneal
[4] = day 9, 10 mg/kg intraperitoneal

`Cn1nc(C(F)(F)C(F)(F)F)c(C(F)(F)F)c1-n1cc(-c2ccc(Cl)c(C(=O)NC3(C#N)CC3)c2)cn1` [Ic-2] was tested, and the “efficacy against tick nymphs” value [1, 3] was > 90%, the “efficacy against tick nymphs” value [1, 4] was > 80% and the efficacy against fleas [2, 3] was > 95%. For the same molecule, the efficacy against fleas [2, 4] was > 90%.
